# Reference: the supplement of paper PMC10849652
# By UniProt entry, the sequences of proteins in these tests, tags left out. Where a name states a change or a piece, a line headed by the entry shows the natural chain unless it says otherwise.
# UniProt Q13315: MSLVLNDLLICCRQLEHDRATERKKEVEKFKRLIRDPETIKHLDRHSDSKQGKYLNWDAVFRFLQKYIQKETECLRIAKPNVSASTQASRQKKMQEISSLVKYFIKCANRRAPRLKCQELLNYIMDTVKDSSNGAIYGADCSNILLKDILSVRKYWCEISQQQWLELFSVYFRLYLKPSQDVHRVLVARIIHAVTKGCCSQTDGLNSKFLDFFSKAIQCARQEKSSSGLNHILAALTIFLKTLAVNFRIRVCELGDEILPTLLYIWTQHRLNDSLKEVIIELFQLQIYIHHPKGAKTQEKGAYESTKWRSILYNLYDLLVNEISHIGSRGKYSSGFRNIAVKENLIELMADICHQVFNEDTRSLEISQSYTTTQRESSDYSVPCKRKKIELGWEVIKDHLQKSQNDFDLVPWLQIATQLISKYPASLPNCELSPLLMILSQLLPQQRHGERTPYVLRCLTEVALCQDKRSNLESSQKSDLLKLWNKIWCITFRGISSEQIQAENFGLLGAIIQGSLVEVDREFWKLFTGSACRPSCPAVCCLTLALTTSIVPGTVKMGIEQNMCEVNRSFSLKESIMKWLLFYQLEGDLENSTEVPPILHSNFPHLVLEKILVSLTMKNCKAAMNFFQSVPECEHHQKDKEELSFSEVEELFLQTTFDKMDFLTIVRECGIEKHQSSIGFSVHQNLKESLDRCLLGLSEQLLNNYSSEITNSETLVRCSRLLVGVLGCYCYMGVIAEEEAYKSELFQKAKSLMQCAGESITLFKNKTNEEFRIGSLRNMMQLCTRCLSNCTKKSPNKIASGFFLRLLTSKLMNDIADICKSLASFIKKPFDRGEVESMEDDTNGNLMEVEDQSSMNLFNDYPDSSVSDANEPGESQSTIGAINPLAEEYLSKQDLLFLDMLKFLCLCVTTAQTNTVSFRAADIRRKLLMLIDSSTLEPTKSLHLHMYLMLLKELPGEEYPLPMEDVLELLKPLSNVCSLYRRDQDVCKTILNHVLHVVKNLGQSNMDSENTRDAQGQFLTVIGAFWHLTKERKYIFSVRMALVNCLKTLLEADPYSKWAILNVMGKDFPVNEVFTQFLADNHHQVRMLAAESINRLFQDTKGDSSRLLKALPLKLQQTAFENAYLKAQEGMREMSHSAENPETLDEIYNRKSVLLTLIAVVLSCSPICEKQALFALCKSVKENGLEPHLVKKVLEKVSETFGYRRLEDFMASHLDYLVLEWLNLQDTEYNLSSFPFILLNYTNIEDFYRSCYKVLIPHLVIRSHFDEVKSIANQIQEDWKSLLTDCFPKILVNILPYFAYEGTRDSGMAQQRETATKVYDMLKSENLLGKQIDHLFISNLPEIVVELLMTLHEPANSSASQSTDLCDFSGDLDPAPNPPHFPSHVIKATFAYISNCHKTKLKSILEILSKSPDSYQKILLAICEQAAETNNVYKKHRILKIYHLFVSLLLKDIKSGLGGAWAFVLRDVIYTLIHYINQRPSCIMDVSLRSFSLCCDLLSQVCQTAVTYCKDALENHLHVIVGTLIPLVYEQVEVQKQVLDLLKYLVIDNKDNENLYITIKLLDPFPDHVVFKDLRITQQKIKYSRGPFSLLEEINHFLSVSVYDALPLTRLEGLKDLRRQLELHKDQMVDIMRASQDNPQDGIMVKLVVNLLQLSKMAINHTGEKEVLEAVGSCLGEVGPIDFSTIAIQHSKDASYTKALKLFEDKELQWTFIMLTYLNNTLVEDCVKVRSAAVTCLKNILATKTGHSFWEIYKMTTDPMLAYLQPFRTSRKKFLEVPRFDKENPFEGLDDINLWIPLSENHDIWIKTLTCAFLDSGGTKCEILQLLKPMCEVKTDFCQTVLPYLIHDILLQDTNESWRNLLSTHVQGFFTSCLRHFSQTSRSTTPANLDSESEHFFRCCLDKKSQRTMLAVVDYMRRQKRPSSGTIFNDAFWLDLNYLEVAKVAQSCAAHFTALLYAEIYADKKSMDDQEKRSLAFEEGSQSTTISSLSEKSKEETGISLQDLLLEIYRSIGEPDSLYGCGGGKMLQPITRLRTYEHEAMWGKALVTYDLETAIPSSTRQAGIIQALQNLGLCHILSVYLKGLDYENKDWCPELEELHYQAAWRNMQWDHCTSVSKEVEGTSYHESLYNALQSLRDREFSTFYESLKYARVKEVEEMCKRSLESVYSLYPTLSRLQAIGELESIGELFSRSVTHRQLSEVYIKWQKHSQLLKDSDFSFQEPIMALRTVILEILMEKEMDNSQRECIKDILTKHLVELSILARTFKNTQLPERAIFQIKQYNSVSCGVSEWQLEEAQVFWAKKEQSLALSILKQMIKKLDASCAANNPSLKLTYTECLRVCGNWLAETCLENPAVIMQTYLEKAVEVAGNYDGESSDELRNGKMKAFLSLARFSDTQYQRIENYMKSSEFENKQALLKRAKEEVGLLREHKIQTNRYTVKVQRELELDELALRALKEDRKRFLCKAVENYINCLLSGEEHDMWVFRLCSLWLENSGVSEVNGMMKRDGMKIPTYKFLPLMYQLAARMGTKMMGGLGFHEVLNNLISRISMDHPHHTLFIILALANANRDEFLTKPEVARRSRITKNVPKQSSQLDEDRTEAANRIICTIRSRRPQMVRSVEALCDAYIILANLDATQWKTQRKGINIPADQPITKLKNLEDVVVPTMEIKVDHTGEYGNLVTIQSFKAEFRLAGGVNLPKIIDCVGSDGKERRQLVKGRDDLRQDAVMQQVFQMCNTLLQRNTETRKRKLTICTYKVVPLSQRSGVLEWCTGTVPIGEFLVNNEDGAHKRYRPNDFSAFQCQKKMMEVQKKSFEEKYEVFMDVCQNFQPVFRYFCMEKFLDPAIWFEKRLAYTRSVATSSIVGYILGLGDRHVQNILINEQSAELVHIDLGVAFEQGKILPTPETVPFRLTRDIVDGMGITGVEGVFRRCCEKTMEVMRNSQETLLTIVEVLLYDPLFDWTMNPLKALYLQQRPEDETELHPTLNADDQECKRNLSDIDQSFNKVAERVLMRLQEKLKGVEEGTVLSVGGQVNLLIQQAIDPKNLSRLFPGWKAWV
# UniProt O94817, whole entry, looked up: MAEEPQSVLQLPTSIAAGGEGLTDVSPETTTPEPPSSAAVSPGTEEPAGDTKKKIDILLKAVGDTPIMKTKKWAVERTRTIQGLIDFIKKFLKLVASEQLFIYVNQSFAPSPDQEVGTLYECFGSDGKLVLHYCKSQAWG
# UniProt Q9BSB4: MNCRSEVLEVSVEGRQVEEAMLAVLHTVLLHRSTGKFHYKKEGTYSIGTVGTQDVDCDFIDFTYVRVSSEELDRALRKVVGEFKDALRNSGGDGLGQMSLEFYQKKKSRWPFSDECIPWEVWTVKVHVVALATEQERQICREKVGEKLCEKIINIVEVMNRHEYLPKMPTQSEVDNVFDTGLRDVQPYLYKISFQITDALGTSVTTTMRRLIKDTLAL
# UniProt Q7Z3C6: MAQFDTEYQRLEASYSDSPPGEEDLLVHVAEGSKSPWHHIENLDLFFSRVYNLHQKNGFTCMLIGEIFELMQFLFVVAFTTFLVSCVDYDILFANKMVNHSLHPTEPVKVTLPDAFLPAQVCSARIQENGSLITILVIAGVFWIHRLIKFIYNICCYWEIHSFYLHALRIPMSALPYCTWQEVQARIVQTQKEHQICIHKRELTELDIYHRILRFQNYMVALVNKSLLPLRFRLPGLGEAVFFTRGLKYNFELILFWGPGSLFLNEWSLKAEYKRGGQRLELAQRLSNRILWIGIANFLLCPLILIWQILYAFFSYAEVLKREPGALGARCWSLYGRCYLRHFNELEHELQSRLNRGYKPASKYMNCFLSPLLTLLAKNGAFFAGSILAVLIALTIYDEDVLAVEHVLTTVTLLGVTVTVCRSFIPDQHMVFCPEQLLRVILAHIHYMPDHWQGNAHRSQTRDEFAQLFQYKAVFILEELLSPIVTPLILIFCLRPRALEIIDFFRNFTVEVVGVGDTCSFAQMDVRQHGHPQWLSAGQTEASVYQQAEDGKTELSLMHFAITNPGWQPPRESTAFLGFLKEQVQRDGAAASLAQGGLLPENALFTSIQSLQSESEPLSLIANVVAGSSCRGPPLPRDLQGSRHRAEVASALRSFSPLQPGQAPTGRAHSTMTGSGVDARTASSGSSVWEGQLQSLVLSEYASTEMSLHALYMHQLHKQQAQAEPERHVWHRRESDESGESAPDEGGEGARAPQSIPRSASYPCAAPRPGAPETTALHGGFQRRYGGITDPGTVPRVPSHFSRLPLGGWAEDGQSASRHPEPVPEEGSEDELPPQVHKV
# UniProt Q9Y6H3: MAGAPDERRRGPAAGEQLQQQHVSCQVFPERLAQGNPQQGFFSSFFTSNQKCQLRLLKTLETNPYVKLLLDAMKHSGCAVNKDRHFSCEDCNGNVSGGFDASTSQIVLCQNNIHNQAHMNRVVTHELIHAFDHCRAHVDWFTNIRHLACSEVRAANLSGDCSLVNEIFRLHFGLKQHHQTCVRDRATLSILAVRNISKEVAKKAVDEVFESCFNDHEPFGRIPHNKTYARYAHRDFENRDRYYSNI
# UniProt Q9H2C2: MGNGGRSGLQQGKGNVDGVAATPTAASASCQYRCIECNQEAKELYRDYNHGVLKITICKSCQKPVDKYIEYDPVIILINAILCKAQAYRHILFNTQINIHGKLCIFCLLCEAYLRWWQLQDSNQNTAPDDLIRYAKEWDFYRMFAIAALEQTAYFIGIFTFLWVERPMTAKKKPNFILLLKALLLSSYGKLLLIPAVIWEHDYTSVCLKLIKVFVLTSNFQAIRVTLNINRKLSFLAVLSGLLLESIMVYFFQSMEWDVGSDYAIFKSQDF
# UniProt Q15041, whole entry, looked up: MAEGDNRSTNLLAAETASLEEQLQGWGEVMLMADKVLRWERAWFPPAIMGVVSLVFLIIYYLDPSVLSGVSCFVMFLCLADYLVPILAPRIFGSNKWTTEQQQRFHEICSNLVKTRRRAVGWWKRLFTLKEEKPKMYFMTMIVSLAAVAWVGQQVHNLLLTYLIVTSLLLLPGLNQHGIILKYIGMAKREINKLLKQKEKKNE
# UniProt Q9H7F0: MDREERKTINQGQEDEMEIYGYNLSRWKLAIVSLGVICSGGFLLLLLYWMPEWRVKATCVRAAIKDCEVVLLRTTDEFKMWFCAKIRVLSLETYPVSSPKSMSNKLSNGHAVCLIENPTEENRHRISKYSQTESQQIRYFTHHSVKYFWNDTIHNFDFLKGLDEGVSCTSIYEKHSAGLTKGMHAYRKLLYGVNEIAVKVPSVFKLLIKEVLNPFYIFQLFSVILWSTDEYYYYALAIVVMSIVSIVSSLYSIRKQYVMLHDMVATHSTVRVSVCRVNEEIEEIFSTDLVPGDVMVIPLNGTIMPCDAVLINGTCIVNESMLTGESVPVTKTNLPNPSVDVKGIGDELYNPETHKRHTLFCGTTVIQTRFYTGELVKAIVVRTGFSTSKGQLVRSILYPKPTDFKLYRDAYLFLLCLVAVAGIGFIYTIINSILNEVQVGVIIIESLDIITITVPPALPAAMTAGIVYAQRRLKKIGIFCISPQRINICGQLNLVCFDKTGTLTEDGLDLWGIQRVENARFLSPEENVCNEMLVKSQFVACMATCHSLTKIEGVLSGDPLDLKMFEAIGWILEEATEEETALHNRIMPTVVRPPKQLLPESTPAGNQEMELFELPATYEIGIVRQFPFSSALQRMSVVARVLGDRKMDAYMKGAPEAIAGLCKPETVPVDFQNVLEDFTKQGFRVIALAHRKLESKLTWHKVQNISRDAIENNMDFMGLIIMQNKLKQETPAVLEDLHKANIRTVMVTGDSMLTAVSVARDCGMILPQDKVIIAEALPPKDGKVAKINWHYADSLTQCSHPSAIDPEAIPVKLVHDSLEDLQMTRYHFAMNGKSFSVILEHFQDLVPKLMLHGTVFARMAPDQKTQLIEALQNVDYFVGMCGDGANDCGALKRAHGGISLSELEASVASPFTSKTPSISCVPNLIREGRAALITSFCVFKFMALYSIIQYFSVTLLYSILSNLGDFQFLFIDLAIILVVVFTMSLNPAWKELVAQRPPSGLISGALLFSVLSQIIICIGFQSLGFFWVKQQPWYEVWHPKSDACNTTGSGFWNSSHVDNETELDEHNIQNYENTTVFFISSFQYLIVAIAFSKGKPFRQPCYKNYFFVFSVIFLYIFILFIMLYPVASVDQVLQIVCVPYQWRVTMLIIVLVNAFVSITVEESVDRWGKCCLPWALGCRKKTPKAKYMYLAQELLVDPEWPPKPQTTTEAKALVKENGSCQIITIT
# UniProt Q9NXU5: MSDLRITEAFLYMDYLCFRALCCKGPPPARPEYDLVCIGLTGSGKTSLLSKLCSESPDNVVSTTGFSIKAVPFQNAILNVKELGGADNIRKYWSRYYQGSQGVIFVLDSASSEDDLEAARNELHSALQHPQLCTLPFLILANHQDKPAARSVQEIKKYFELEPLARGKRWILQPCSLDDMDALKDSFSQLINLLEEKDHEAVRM
# This is one part of the list.
# Tests used:
# Test in all cases: log2 fold change, soluble protein after heating vs DMSO (PISA); higher = thermal stabilisation; K562 cells, 10 uM, 30 min; active = over 0.2 and 3.5 SD of the protein, either way, in both replicates (recomputed)
# [1] = compound: NC(=O)Nc1cc(-c2cccc(F)c2)sc1C(=O)N[C@H]1CCCNC1
# Procedure, shortened: (§1)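 Values are thermal stability changes relative to control samples and are taken from duplicates. They are stated as log2 fold changes. Before quantification by TMTpro 16plex LC-MS/MS with equalised channel sums, K562 cells at 2×10^6 cells/mL were treated with 10 μM compound for 30 min, heated in aliquots for 3 min across 48°C-58°C, pooled, extracted in PBS with 0.5% NP-40 at 4°C, and centrifuged at 21,000xg for 90 min to give the soluble supernatant.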
# [2] = compound: NC(=O)c1cnc(N[C@@H]2CCCC[C@@H]2N)nc1Nc1cccc(-n2nccn2)c1
# Procedure, shortened: as §1
# [3] = compound: NC1(c2ccc(-c3nc4ccn5c(=O)[nH]nc5c4cc3-c3ccccc3)cc2)CCC1
# Procedure, shortened: as §1
# [4] = compound: NCC(=O)Nc1ccc(-n2nc(C(F)(F)F)cc2-c2ccc3c(ccc4ccccc43)c2)cc1
# Procedure, shortened: as §1
# entinostat = compound: Nc1ccccc1NC(=O)c1ccc(CNC(=O)OCc2cccnc2)cc1 [entinostat]
# Procedure, shortened: as §1
# vorinostat = compound: O=C(CCCCCCC(=O)Nc1ccccc1)NO [vorinostat]
# Procedure, shortened: as §1
# citarinostat = compound: O=C(CCCCCCNC(=O)c1cnc(N(c2ccccc2)c2ccccc2Cl)nc1)NO [citarinostat]
# Procedure, shortened: as §1
# silmitasertib = compound: O=C(O)c1ccc2c(c1)nc(Nc1cccc(Cl)c1)c1ccncc12 [silmitasertib]
# Procedure, shortened: as §1
# [5] = compound: O=C1NC(=O)C(c2cnc3ccccn23)=C1c1cn2c3c(cc(F)cc13)CN(C(=O)N1CCCCC1)CC2
# Procedure, shortened: as §1
# [6] = compound: c1cc(OCCN2CCCCC2)cc(-c2n[nH]c3ccc(-c4nnc[nH]4)cc23)c1
# Procedure, shortened: as §1
Target,log2 fold change [1],log2 fold change [2],log2 fold change [3],log2 fold change [4],log2 fold change (entinostat),log2 fold change (vorinostat),log2 fold change (citarinostat),log2 fold change (silmitasertib),log2 fold change [5],log2 fold change [6]
ATM (UniProt Q13315),inactive: -0.035,inactive: -0.076,inactive: -0.126,inactive: -0.034,inactive: -0.01,inactive: 0.042,inactive: -0.042,inactive: -0.005,inactive: -0.017,inactive: -0.023
ATG12 (UniProt O94817),inactive: -0.03,inactive: -0.029,inactive: -0.131,inactive: 0.008,inactive: 0.036,inactive: 0.152,inactive: 0.001,inactive: -0.004,inactive: -0.008,inactive: -0.039
ATG101 (UniProt Q9BSB4),inactive: 0.027,inactive: -0.049,inactive: -0.027,inactive: 0.031,inactive: 0.092,inactive: 0.013,inactive: -0.005,inactive: 0.101,inactive: 0.004,inactive: -0.016
ATG9A (UniProt Q7Z3C6),inactive: 0.019,inactive: 0,inactive: -0.262,inactive: 0.038,inactive: 0.008,inactive: 0.061,inactive: 0.059,inactive: -0.023,inactive: 0.019,inactive: -0.013
ATP23 (UniProt Q9Y6H3),inactive: 0.014,inactive: 0.06,inactive: 0.002,inactive: -0.057,inactive: -0.012,inactive: 0.044,inactive: -0.012,inactive: -0.027,inactive: 0.02,inactive: -0.045
ARV1 (UniProt Q9H2C2),inactive: -0.03,inactive: -0.055,inactive: -0.103,inactive: -0.101,inactive: 0.019,inactive: 0.024,inactive: 0.052,inactive: 0.037,inactive: -0.004,inactive: -0.113
ATG16L1 (UniProt Q676U5),inactive: -0.053,inactive: -0.053,inactive: -0.063,inactive: -0.018,inactive: -0.044,inactive: 0.01,inactive: 0.028,inactive: -0.005,inactive: -0.043,inactive: -0.01
ASPM (UniProt Q8IZT6),inactive: -0.06,inactive: -0.007,inactive: -0.06,inactive: -0.036,inactive: -0.039,inactive: -0.107,inactive: -0.016,inactive: -0.102,inactive: 0.127,inactive: 0.014
ATP6V1A (UniProt P38606),inactive: -0.021,inactive: -0.071,inactive: -0.106,inactive: -0.046,inactive: -0.006,inactive: -0.023,inactive: 0.01,inactive: -0.001,inactive: -0.039,inactive: -0.047
ATP6V0A1 isoform 3 (UniProt Q93050),inactive: -0.051,inactive: -0.207,inactive: -0.184,inactive: 0.008,inactive: 0.083,inactive: 0.062,inactive: 0.109,inactive: 0.102,inactive: 0.019,inactive: -0.112
ARRB1 (UniProt P49407),inactive: -0.01,inactive: 0.088,inactive: -0.03,inactive: 0.024,inactive: -0.026,inactive: 0.071,inactive: -0.049,inactive: 0.004,inactive: -0.019,inactive: 0.036
ATP11A (UniProt P98196),inactive: -0.034,inactive: 0.065,inactive: -0.001,inactive: -0.054,inactive: -0.025,inactive: -0.08,inactive: -0.154,inactive: 0.065,inactive: -0.024,active: -0.32
ATG7 (UniProt O95352),inactive: 0.002,inactive: 0.018,inactive: -0.11,inactive: -0.021,inactive: 0.009,inactive: 0.03,inactive: 0.061,inactive: 0.003,inactive: -0.05,inactive: -0.042
ATF2 (UniProt P15336),inactive: -0.092,inactive: 0.044,inactive: -0.13,inactive: -0.085,inactive: -0.005,inactive: -0.089,inactive: -0.04,inactive: 0.215,inactive: 0.073,inactive: -0.303
ASAP1 isoform 2 (UniProt Q9ULH1),inactive: -0.009,inactive: -0.088,inactive: -0.174,inactive: -0.058,inactive: 0.063,inactive: 0.076,inactive: 0.08,inactive: 0.011,inactive: -0.057,inactive: 0.005
ARPC5 (UniProt O15511),inactive: 0.026,inactive: 0.01,inactive: 0.025,inactive: 0.001,inactive: -0.054,inactive: -0.06,inactive: 0.043,inactive: 0.037,inactive: 0,inactive: 0.007
ATP5F1A (UniProt P25705),inactive: 0.01,inactive: -0.01,inactive: 0.056,inactive: 0.016,inactive: -0.033,inactive: -0.028,inactive: 0.018,inactive: -0.007,inactive: 0.005,inactive: -0.014
ATP1B2 (UniProt P14415),inactive: 0.007,inactive: 0.119,inactive: 0.01,inactive: 0.02,inactive: -0.049,inactive: 0.014,inactive: -0.081,inactive: 0.031,inactive: -0.15,inactive: 0.044
ARL6IP1 (UniProt Q15041),inactive: 0.035,inactive: 0.018,inactive: -0.001,inactive: 0.019,inactive: 0.087,inactive: -0.04,inactive: -0.109,inactive: 0.031,inactive: -0.059,inactive: -0.018
ARIH2 (UniProt O95376),inactive: -0.041,inactive: 0.021,inactive: -0.048,inactive: 0.047,inactive: -0.02,inactive: -0.031,inactive: 0.025,inactive: 0.031,inactive: -0.005,inactive: 0.004
ATP13A2 (UniProt Q9NQ11),inactive: 0.032,inactive: 0.01,active: -0.336,inactive: 0.064,inactive: -0.005,inactive: 0.005,inactive: -0.054,inactive: 0.026,inactive: -0.052,inactive: -0.025
ATP13A3 (UniProt Q9H7F0),inactive: -0.072,inactive: 0.027,inactive: -0.082,inactive: 0.039,inactive: 0.026,inactive: -0.026,inactive: -0.033,inactive: 0.048,inactive: 0.02,inactive: -0.099
ATP6V1H (UniProt Q9UI12),inactive: 0,inactive: -0.141,inactive: -0.201,inactive: -0.094,inactive: 0.046,inactive: 0.032,inactive: 0.031,inactive: 0.005,inactive: 0.025,inactive: -0.062
ARL15 (UniProt Q9NXU5),inactive: -0.049,inactive: 0.171,inactive: -0.094,inactive: 0.026,inactive: 0.003,inactive: 0.028,inactive: 0.04,inactive: 0.028,inactive: -0.027,inactive: -0.013
ASCC3 (UniProt Q8N3C0),inactive: -0.23,inactive: -0.043,inactive: 0.076,inactive: 0.075,inactive: 0.196,inactive: 0.033,inactive: 0.018,inactive: 0.071,inactive: 0.307,inactive: 0.011
ATP13A1 (UniProt Q9HD20),inactive: -0.03,inactive: -0.02,inactive: -0.033,inactive: -0.065,inactive: 0.011,inactive: -0.009,inactive: 0.006,inactive: 0.008,inactive: -0.058,inactive: -0.023
ARPC3 (UniProt O15145),inactive: 0.028,inactive: 0.013,inactive: 0.008,inactive: 0.015,inactive: -0.048,inactive: -0.046,inactive: -0.013,inactive: 0.029,inactive: -0.049,inactive: 0.048
ATP9B (UniProt O43861),active: -0.58,inactive: -0.028,inactive: 0.052,inactive: -0.029,inactive: -0.24,inactive: -0.044,inactive: 0.135,inactive: 0.071,inactive: 0.029,inactive: -0.048
ATP7B (UniProt P35670),inactive: -0.051,inactive: -0.139,inactive: -0.111,inactive: -0.15,inactive: -0.003,inactive: 0.035,inactive: 0.005,inactive: 0.036,inactive: -0.036,inactive: -0.023

# An excerpt from above, reduced to log2 fold change [6] and log2 fold change (entinostat).
Target,log2 fold change [6],log2 fold change (entinostat)
ATG7 (UniProt O95352),inactive: -0.042,inactive: 0.009
ARPC3 (UniProt O15145),inactive: 0.048,inactive: -0.048
